Test results taken from publication PMC6010122 (Journal of Enzyme Inhibition and Medicinal Chemistry, 2017).

Tests used:
U937 cells = experiment: Cellular antiproliferation assay (CCK-8), U937; type: cell-based; settings: Homo sapiens, U-937, 72 h, read-out: Antiproliferation IC50, U937
MOLT-4 cells = experiment: Cellular antiproliferation assay (CCK-8), MOLT-4; type: cell-based; settings: Homo sapiens, MOLT-4, 72 h, read-out: Antiproliferation IC50, MOLT-4

IC50 (U937 cells): 16 µM
IC50 (MOLT-4 cells): 48.5 µM
SMILES: Cc1ccc(NC(=O)c2ccc(CN3CCN(C)CC3)cc2)cc1Nc1nccc(-c2cccnc2)n1 [Imatinib, imatinib]
